Series [1] has as its target c-Jun (Homo sapiens (SW1353 chondrosarcoma cells)) (UniProt P05412). Description: EMSA supershift. The following applies: nuclear extract of sheared SW1353 cells, anti-c-Jun, 5 mM MgCl2, poly(dI-dC); EMSA: binding buffer with 50 ng poly(dI-dC), 2.5% glycerol, 0.05% NP-40, 5 mM MgCl2, 0.25 mg BSA, 20 fmol probe, 1-2 ug nuclear extract, 30 min on ice; protein in an extract; label: 5'-biotin. In general terms: In EMSA bound probe runs differently from free probe, usually more slowly.

The chains behind the UniProt entries cited, without tags or fusion partners.
UniProt P05412, whole entry: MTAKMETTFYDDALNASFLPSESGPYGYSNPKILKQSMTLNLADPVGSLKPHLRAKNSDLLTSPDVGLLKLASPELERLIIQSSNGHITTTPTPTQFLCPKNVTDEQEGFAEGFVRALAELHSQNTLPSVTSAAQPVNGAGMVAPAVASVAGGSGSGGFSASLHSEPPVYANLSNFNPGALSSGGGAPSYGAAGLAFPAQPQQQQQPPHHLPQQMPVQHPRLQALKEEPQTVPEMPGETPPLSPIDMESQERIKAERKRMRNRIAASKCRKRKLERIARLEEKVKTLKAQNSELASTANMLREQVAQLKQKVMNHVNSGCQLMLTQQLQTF
UniProt Q04206, whole entry: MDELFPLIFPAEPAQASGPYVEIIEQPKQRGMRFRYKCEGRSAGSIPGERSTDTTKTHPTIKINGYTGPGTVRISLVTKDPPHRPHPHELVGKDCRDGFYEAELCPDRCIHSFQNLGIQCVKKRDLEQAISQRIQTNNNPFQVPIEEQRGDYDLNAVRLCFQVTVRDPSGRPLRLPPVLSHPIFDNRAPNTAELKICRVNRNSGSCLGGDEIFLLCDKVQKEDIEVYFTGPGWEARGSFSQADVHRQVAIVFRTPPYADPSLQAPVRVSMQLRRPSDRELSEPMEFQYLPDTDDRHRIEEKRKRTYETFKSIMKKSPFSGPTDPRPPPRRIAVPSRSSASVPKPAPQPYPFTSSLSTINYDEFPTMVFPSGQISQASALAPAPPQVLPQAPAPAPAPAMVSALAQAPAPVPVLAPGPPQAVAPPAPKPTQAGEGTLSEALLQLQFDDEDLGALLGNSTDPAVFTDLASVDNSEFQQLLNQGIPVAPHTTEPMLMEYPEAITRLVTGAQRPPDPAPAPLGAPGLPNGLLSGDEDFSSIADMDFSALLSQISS

For series [2], the target named is p65 (NF-kB) (Homo sapiens (SW1353 chondrosarcoma cells)) (UniProt Q04206). Description: EMSA supershift. The following applies: nuclear extract of sheared SW1353 cells, anti-p65, 5 mM MgCl2, poly(dI-dC); EMSA: binding buffer with 50 ng poly(dI-dC), 2.5% glycerol, 0.05% NP-40, 5 mM MgCl2, 0.25 mg BSA, 20 fmol probe, 1-2 ug nuclear extract, 30 min on ice; protein in an extract; label: 5'-biotin.

For at least one entry, the source does not settle the construct or the ends of the probe. Results from cells or extracts need not show a direct contact.

Turning to “ATGAGTCACCT (double strand) [c-Jun (AP-1) probe, MMP-7 promoter (-68/-58)]”, in series [1], the binding result is given as “binds”.
Regarding “GGAAATGCCTT (double strand) [NF-kB probe, MMP-7 promoter (-1507/-1498)]”, the binding result in series [2] is recorded as “binds”.
